Source: patent publication US20120148695A1, “Pharmaceutical Compositions From Carapa Guianensis” (priority 2004, published 2012)
At least one structure is not confirmed: it was looked up by name or label, or the drawing left a doubt.

Legend:
[1] = test system: TNF-α production by murine macrophages; assay: production of TNF-α by peritoneal macrophages (ELISA); assay type: cell-based, Balb/c mice; conditions: dexamethasone 0.005 μM; LPS 30 ng/mL, 24 h
murine lymphocytes = assay: proliferation of lymphocytes (tritiated thymidine); assay type: cell-based, Balb-c mice; conditions: dexamethasone 0.005 μM
[2] = test system: edema of paw induced by histamine; assay: edema of paw induced by histamine, oral pre-treatment; assay type: in vivo, Wistar rats; conditions: rats; cyproheptadine 30 mg/Kg p.o.
[3] = test system: hyperalgesia induced by histamine; assay: hyperalgesia induced by histamine (hot plate); assay type: in vivo, Wistar rats; conditions: cyproheptadine 30 mg/Kg p.o.
Protocol: The […] activity was evaluated through an essay of hyperalgesia, performed in a heated plate (Hot Plate, Ugo Basile-Italia model DS-37), with male Wistar rats. The essay is performed through placement of the animals on the hot plate, limited by an acrylic dome of approximately 18 cm in diameter by 40 cm in height.
The induction of a hyperalgesic state was performed through intraplant injection of 100 μg/paw of histamine in Wistar rats in one of the rear paws, at the final volume of 100 μL/paw. In the counter-lateral paw the same volume of vehicle (sterile saline free of pyrogens) was injected. The stimulus was performed in animals non-treated and in animals pre-treated with promethazine (30 mg/Kg, p.o.). Thirty minutes after the stimulus, the animals were placed in a hot plate at 52.5±0.5° C., and two chronometers are set to record the latency of response of withdrawal of each rear paw. Results were expressed in terms of variation of latency of withdrawal of left and right side paws, measured in seconds.
The induction of a hyperalgesic state was performed through intraplant injection of 100 μg/paw of histamine in Wistar rats in one of the rear paws, at a final volume of 100 μL/paw. […] Results were expressed in terms of variation of latency of withdrawal of left and right side paws, measured in seconds.

SMILES | production of TNF induced by LPS [1] | proliferation of lymphocytes induced by Con-A (murine lymphocytes) | edema of paw induced by histamine [2] | hyperalgesia induced by histamine [3]
C[C@@H]1C[C@H]2[C@@H]3CCC4=CC(=O)C=C[C@]4(C)[C@@]3(F)[C@@H](O)C[C@]2(C)[C@@]1(O)C(=O)CO [dexamethasone] | inhibited significantly | inhibited the proliferation of lymphocytes significantly |  | 
CN1CCC(=C2c3ccccc3C=Cc3ccccc32)CC1 [cyproheptadine] |  |  | inhibited | inhibition
